Drawing on patent publication US20060177442A1 (Bristol-Myers Squibb, published 2006), this text covers binding for 1 molecule.

Chains of the proteins cited; added tags and fusions are not shown. Residues count along the entry.
UniProt P28908, residues 19-595: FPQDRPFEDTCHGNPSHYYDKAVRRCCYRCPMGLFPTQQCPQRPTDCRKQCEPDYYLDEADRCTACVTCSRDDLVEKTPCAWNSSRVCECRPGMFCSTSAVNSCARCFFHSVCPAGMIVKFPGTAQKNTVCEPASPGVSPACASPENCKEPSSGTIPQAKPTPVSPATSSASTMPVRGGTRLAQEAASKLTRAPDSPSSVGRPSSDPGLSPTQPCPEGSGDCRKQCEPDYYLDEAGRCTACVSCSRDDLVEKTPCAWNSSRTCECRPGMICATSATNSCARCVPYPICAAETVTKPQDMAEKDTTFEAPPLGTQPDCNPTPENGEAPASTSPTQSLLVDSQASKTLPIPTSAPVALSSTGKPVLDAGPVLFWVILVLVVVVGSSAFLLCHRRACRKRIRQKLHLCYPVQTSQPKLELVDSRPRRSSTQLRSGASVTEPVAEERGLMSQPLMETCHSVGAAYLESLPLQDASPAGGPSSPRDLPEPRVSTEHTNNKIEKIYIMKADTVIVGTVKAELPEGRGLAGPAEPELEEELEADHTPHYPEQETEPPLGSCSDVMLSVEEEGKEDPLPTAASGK

The target in the assay is CD30 on Hodgkin-derived cell lines (L540, L428) (human) (UniProt P28908). Nature of the assay: fluorescence microscopy of L540 cells stained with 5F11 and FITC-labeled goat anti-human antibody, combined with a TUNEL assay.

These are yes or no findings as the source states them, for the method shown. Some entries that bind do so weakly or less than the wild type.

B1: fully human anti-CD30 monoclonal antibody 5F11 (antibody, V domains shown)
VH: QVQLQQWGAGLLKPSETLSLTCAVYGGSFSAYYWSWIRQPPGKGLEWIGDINHGGGTNYNPSLKSRVTISVDTSKNQFSLKLNSVTAADTAVYYCASLTAYWGQGSLVTVSS
VL: DIQMTQSPTSLSASVGDRVTITCRASQGISSWLTWYQQKPEKAPKSLIYAASSLQSGVPSRFSGSGSGTDFTLTISSLQPEDFATYYCQQYDSYPITFGQGTRLEIK
Take B1: the binding result was “binds”.
